Measured values published in PMC11645656, “MRGPRX4 mediates phospho-drug associated pruritus in a humanized mouse model” (Science translational medicine, 2024).
Several values for one entry are separate records, joined by “and”; a condition that tells them apart may be missing. Equal entries are not always repeated. This continues a long series; more values of the same kind are listed elsewhere.

The chains behind the UniProt entries cited, without tags or fusion partners.
UniProt Q96LA9, whole entry L83S/W158A: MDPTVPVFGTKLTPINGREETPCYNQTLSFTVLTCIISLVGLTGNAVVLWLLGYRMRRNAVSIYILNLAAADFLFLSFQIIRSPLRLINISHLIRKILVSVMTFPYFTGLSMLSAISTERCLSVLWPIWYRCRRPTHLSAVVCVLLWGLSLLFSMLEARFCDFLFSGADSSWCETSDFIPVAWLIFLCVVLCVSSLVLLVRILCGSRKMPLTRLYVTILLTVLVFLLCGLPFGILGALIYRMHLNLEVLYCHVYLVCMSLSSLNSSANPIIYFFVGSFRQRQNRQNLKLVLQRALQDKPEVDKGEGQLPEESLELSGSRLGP
UniProt Q96LA9, whole entry, stated change not applied: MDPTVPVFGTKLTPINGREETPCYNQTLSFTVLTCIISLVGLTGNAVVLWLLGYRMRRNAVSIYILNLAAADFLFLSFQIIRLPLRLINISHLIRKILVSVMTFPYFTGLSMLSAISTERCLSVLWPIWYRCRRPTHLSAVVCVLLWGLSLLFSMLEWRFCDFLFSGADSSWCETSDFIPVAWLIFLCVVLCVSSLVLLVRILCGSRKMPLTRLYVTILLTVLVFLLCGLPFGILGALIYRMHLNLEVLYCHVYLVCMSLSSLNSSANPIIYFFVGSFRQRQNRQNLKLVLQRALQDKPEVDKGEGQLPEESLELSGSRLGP
UniProt Q96LA9, whole entry L83S/Y254A: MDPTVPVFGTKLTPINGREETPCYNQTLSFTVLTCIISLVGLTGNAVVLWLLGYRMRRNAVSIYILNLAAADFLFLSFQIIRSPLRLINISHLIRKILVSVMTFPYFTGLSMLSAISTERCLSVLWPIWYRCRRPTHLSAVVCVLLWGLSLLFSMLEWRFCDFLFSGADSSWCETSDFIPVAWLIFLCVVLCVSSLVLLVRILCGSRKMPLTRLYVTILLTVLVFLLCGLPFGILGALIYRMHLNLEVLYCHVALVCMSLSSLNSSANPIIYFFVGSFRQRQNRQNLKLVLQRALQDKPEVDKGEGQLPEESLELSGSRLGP

Experiments:
Assay type in all cases: cell-based
MRGPRX4 W158A = target: T1, MRGPRX4 W158A (Homo sapiens, UniProt Q96LA9, L83S/W158A); assay: Calcium mobilization assay (FLIPR), MRGPRX4 W158A mutant
T1 construct: expressed in transfected cells; host or cells: HEK293T, transient
From the text: (§1) Fig. 3. […] (A) Cryo-EM density map of MRGPRX4-Gq in complex with fospropofol. (B) The density map of fospropofol and R82 of MRGPRX4. (C and D) Key molecular interactions between fospropofol and the hydrophilic (C) and hydrophobic (D) part of the agonist binding pocket of MRGPRX4. Amino acid residues interacting with fospropofol are shown as sticks. Hydrogen bond is shown as cyan dashed lines. […] Data are from at least three independent experiments, each performed in triplicate, and reported as the mean ± SEM. (E) and (F) were collected from the same sets of experiments.
(§2) To generate murine Mrgprs expressing cells, HEK293T cells (ATCC) were seeded on poly-D-lysine coated 96 well plate at 25,000 cells per well one day prior to transfection. HEK293T cells were transiently co-transfected with the mammalian expression plasmids carrying cDNA encoding the murine Mrgpr genes and plasmid inserted with cDNA encoding murine α-subunit of the heterotrimeric G15 protein (Gα15) in triplicates using Lipofectamine LTX reagents (Thermo Scientific). To generate WT, S83L, and alanine mutant MRGPRX4-expressing cells, HEK293T cells were seeded on poly-D-lysine coated 384 well plate at 12,000 cells per well one day prior to transfection. Mammalian expression plasmids pLX304 (vector from Addgene) carrying different MRGPRX4 coding sequences were transiently transfected into HEK293T cells in triplicates with Lipofectamine LTX reagents (Thermo Scientific). Intracellular calcium mobilization assays were performed after one day of transfection. Murine Mrgprs tested include Mrgpra1, Mrgpra2a, Mrgpra2b, Mrgpra3, Mrgpra4, Mrgpra6, Mrgpra9, Mrgpra10, Mrgpra11, Mrgpra12, Mrgpra14, Mrgprb5, Mrgprb6, Mrgprb10, Mrgprb11, and Mrgprc11. WT and mutant MRGPRX4 constructs tested include WT, S83L, R82A, R86A, R95A, W158A, Y250A, and Y254A.
(§3) To generate MRGPRX4 mutant constructs, site-directed mutagenesis was performed using Q5® Site-Directed Mutagenesis Kit (New England Biolabs). The primers were designed by the NEBaseChanger tool, with forward primers spanning designated mutated sequence corresponding to the desired amino acid substitutions. The plasmids with WT MRGPRX4 sequence served as the templates for polymerase chain reaction (PCR) amplification with Q5 high-fidelity polymerase and respective primer pairs according to the manufacturer’s conditions. Then, the linear PCR products underwent phosphorylation, ligation, and simultaneous degradation of template DNA by incubating them with a KLD enzyme mix consisting of T4 polynucleotide kinase, T4 DNA ligase, and DpnI at room temperature for 5 min. Subsequently, the mutated circular plasmids were transformed into NEB 5-alpha competent E. coli by heat-shock method, and the successfully transformed bacteria were selected on LB plates with selection antibiotics. The next day, the transformant colonies were picked, expanded in LB broth containing selection antibiotics overnight. Plasmids were isolated using QIAprep Spin Miniprep Kit (Qiagen) and subjected to sequencing to confirm the mutation.

MRGPRX4 S83L (L83) = MRGPRX4 S83L (L83) (Homo sapiens, UniProt Q96LA9); assay: PRESTO-Tango β-arrestin recruitment assay, HTLA cells stably expressing S83L MRGPRX4; details: single replicate
Procedure: HTLA cells, a cell line derived from HEK293 and engineered to stably express a tTA-dependent luciferase reporter and a β-arrestin2-TEV fusion gene, were generously provided by Richard Axel's laboratory. HTLA cells were cultured in growth medium containing 2 μg/ml puromycin and 100 μg/ml hygromycin B in 5% CO2 at 37 °C. Stably MRGPRX4-expressing HTLA cells were generated by transfecting pcDNA3.1(+)-Zeo containing MRGPRX4-Tango construct (either with WT or S83L mutant sequence) into HTLA cells with Lipofectamine 3000 and selecting the successful transfected clones with Zeocin.
HTLA cells stably expressing either WT or S83L MRGPRX4 were seeded in PDL-coated 96-well white clear bottom cell culture plates with DMEM containing 10% FBS, at a density of 35,000 cells per well and were allowed to attach to the bottom of the wells overnight. The next day, growth medium was replaced with 100 μl of serum-free medium containing the tested drugs at various concentrations, and the cells were then incubated at 37°C for 24 h. On the following day, media with drug solutions was removed and 50 μl per well of Bright-Glo™ Reagent from Bright-Glo™ Luciferase Assay System (Promega) was loaded. The plate was incubated at room temperature in the dark for 5 min, and the relative luminescence units were measured using the Flexstation-3 instrument with SoftMax®Pro 7.1 software (Molecular Devices). Dose response curves and EC50s were analyzed as described above.
MRGPRX4 by β-arrestin (Tango) recruitment assay. Data are from three independent experiments,
performed in triplicate, and depicted as mean ± SEM.

MRGPRX4 Y254A = target: T2, MRGPRX4 Y254A (Homo sapiens, UniProt Q96LA9, L83S/Y254A); assay: Calcium mobilization assay (FLIPR), MRGPRX4 Y254A mutant
T2 construct: expressed in transfected cells; host or cells: HEK293T, transient
From the text: as §1, §2, §3

- Calcium mobilization response, dose-response replicate data (Fig. 3E and 3F) (MRGPRX4 Y254A; concentration 188 pM): 6.613
- Calcium mobilization response, dose-response replicate data (Fig. 3E and 3F) (MRGPRX4 Y254A; concentration 1.69e-9 M): 15.5304
- Calcium mobilization response, dose-response replicate data (Fig. 3E and 3F) (MRGPRX4 Y254A; concentration 5.08e-9 M): 15.3074
- Calcium mobilization response, dose-response replicate data (Fig. 3E and 3F) (MRGPRX4 Y254A; concentration 1.52e-8 M): 18.8742
- Calcium mobilization response, dose-response replicate data (Fig. 3E and 3F) (MRGPRX4 Y254A; concentration 4.57e-8 M): 20.2118
- Calcium mobilization response, dose-response replicate data (Fig. 3E and 3F) (MRGPRX4 Y254A; concentration 1.37e-7 M): 24.0015 and 19.0972
- Calcium mobilization response, dose-response replicate data (Fig. 3E and 3F) (MRGPRX4 Y254A; concentration 4.12e-7 M): 12.6324 and 22.2181
- Calcium mobilization response, dose-response replicate data (Fig. 3E and 3F) (MRGPRX4 Y254A; concentration 1.23e-6 M): 20.8805
- Calcium mobilization response, dose-response replicate data (Fig. 3E and 3F) (MRGPRX4 Y254A; concentration 3.7e-6 M): 16.645
- Calcium mobilization response, dose-response replicate data (Fig. 3E and 3F) (MRGPRX4 Y254A; concentration 1.11e-5 M): 18.2055
- Calcium mobilization response, dose-response replicate data (Fig. 3E and 3F) (MRGPRX4 Y254A; concentration 3.33e-5 M): 11.2948
- Calcium mobilization response, dose-response replicate data (Fig. 3E and 3F) (MRGPRX4 Y254A; concentration 0.0001 M): 7.282
Compound: O=C1NC(c2ccccc2)(c2ccccc2)C(=O)N1COP(=O)(O)O [Fosphenytoin]
- Calcium mobilization response, dose-response replicate data (Fig. 3E and 3F) (MRGPRX4 W158A; concentration 3.33e-5 M): -13.644 and -8.362 and 0.9221 and 7.008 and -1.263 and 7.654 and 5.202
- Calcium mobilization response, dose-response replicate data (Fig. 3E and 3F) (MRGPRX4 W158A; concentration 0.0001 M): -17.6055 and -13.9741 and 10.8806 and -2.951 and -0.7377 and -2.155 and 5.647 and 16.5707
- fig. S7 response (raw signal), concentration-response (MRGPRX4 S83L (L83); 3.91e-6 M): 16189.8 and 18368.9 and 14754.9 and 7940.14 and 9488.78 and 17786.7 and 16725.6 and 16301.1
- fig. S7 response (raw signal), concentration-response (MRGPRX4 S83L (L83); 7.81e-6 M): 31267.6 and 23364.7 and 9967.06 and 14972.3 and 21528.8 and 27388.6 and 23521.5 and 22191.5
- fig. S7 response (raw signal), concentration-response (MRGPRX4 S83L (L83); 1.56e-5 M): 54620.8 and 55257.1 and 68081.9 and 18104.1 and 21454.6 and 13510.6 and 39603.3 and 42888 and 40258.8
- fig. S7 response (raw signal), concentration-response (MRGPRX4 S83L (L83); 3.13e-5 M): 198387 and 180205 and 220454 and 39021.7 and 31915.3 and 32986.9 and 96507.5 and 89824.8 and 100978
- fig. S7 response (raw signal), concentration-response (MRGPRX4 S83L (L83); 6.25e-5 M): 644734 and 659539 and 647956 and 87801.9 and 74073.9 and 87746.9 and 239726 and 229383 and 201212
- fig. S7 response (raw signal), concentration-response (MRGPRX4 S83L (L83); 0.00025 M): 2309244 and 2438974 and 2260938 and 524727 and 460757 and 480250 and 1001078 and 966214 and 954440
- fig. S7 response (raw signal), concentration-response (MRGPRX4 S83L (L83); 0.0005 M): 3094672 and 3169559 and 2824560 and 915447 and 870388 and 886744 and 1465791 and 1447165 and 1478274
- fig. S7 response (raw signal), concentration-response (MRGPRX4 S83L (L83); 0.001 M): 3194927 and 3202975 and 3421887 and 1059050 and 1086825 and 1067548 and 1850734 and 1628158 and 1470142
- fig. S7 response (raw signal), concentration-response (MRGPRX4 S83L (L83); 0.002 M): 3749873 and 3571246 and 3372208 and 1358962 and 1203034 and 1504302 and 1686569 and 1838795 and 1612874
- fig. S7 response (raw signal), concentration-response (MRGPRX4 S83L (L83); 0.004 M): 2851998 and 2998820 and 3134679 and 1258459 and 1272732 and 1356268 and 1569674 and 1612970 and 1391824
